This passage reports binding results from article PMC7033568.

Results are given in words; binding and its absence hold for the method and conditions named. Binding seen in cells or lysates may run through a third protein. A result given as binding can be weak or reduced; the word gives no strength. Sequences can lack the tags named with a protein.

This experiment has as its target cSH2 domain of PIK3R1. Briefly: pull-down; GST pull-down; which partner was the GST fusion and the conditions are not stated.

B1: LRRC4 (as used in the GST pull-down) (protein, UniProt Q9HBW1 39-653)
chain: ASAGPQNCPSVCSCSNQFSKVVCTRRGLSEVPQGIPSNTRYLNLMENNIQMIQADTFRHLHHLEVLQLGRNSIRQIEVGAFNGLASLNTLELFDNWLTVIPSGAFEYLSKLRELWLRNNPIESIPSYAFNRVPSLMRLDLGELKKLEYISEGAFEGLFNLKYLNLGMCNIKDMPNLTPLVGLEELEMSGNHFPEIRPGSFHGLSSLKKLWVMNSQVSLIERNAFDGLASLVELNLAHNNLSSLPHDLFTPLRYLVELHLHHNPWNCDCDILWLAWWLREYIPTNSTCCGRCHAPMHMRGRYLVEVDQASFQCSAPFIMDAPRDLNISEGRMAELKCRTPPMSSVKWLLPNGTVLSHASRHPRISVLNDGTLNFSHVLLSDTGVYTCMVTNVAGNSNASAYLNVSTAELNTSNYSFFTTVTVETTEISPEDTTRKYKPVPTTSTGYQPAYTTSTTVLIQTTRVPKQVAVPATDTTDKMQTSLDEVMKTTKIIIGCFVAVTLLAAAMLIVFYKLRKRHQQRSTVTAARTVEIIQVDEDIPAATSAAATAAPSGVSGEGAVVLPTIHDHINYNTYKPAHGAHWTENSLGNSLHPTVTTISEPYIIQTHTKDKVQETQI
For the molecule B1, the binding result was “binds”.
